Experimental data reported in paper PMC8898311.
Results are given in words; binding and its absence hold for the method and conditions named. Binding seen in cells or lysates may run through a third protein. Some binding calls cover weakened binding; strength is not graded here. One block for each binder: values may come before it.

How the values were obtained:
[1] = biological target: T1, NOP2/Sun RNA methyltransferase 5 (NSUN5) (rat (endogenous in BMSCs of Sprague Dawley rats)) (UniProt G3V660); test: co-IP; rat BMSC lysates incubated at 4 °C for 12 h with magnetic beads cross-linked with anti-NSUN5 or anti-Trap1 antibodies (control: nonspecific mouse IgG); western blotting and silver staining
T1 sequence: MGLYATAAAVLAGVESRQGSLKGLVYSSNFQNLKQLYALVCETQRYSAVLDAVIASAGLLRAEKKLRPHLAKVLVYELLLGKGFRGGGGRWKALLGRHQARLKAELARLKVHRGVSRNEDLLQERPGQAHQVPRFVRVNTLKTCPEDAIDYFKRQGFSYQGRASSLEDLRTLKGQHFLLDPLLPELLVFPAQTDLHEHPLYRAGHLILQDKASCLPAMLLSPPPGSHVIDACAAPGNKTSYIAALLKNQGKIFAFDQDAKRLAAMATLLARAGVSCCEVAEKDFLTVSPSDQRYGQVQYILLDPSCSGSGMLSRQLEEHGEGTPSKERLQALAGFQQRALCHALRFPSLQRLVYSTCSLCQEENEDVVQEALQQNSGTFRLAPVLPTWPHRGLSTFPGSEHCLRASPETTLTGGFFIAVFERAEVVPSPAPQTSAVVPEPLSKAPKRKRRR

[2] = biological target: T2, tumor necrosis factor receptor-associated protein 1 (TRAP1) (rat (endogenous in BMSCs of Sprague Dawley rats)) (UniProt Q5XHZ0); test: as above
T2 sequence: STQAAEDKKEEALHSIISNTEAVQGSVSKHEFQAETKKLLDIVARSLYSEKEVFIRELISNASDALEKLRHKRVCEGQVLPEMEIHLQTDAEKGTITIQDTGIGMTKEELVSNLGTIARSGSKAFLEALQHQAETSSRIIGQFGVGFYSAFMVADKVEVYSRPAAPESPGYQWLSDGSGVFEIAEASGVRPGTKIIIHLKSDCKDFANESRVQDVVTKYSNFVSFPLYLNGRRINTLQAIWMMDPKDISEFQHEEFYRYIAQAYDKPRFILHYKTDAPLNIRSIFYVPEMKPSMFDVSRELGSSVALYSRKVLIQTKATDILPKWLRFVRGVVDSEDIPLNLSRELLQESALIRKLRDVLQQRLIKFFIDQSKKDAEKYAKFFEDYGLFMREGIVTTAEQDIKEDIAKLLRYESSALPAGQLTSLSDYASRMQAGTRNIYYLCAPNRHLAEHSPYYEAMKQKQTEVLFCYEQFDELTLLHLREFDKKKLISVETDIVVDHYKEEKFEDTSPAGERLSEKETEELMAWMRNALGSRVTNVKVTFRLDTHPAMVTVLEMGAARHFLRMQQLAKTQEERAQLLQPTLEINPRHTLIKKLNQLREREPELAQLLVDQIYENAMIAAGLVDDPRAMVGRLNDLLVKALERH

- binding [1]: binds
B1: tumor necrosis factor receptor-associated protein 1 (TRAP1) (protein, UniProt Q5XHZ0 61-706)
chain: T2 sequence

B2: NOP2/Sun RNA methyltransferase 5 (NSUN5) (enzyme, UniProt G3V660 1-451)
chain: T1 sequence
- binding [2]: binds
